Measurements taken from article PMC4299515.
These are yes or no findings as the source states them, for the method shown. Some entries that bind do so weakly or less than the wild type. For some of these results: Sequences can lack the tags named with a protein.

Sequences of proteins named here, by UniProt entry; tags and fusion partners are left off. A change or cut given only in a name is not applied to a line headed by its entry.
UniProt Q61686: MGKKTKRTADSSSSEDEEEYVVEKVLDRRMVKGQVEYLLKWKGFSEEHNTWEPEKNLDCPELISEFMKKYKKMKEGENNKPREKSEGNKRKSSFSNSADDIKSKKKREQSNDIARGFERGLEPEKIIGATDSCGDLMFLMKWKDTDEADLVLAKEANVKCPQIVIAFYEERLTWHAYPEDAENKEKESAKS
UniProt P83917: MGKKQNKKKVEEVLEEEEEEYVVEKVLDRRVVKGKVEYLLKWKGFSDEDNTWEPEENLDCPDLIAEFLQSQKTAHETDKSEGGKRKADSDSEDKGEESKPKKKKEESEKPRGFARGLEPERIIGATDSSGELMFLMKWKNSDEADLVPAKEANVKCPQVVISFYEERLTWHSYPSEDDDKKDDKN
UniProt P23198: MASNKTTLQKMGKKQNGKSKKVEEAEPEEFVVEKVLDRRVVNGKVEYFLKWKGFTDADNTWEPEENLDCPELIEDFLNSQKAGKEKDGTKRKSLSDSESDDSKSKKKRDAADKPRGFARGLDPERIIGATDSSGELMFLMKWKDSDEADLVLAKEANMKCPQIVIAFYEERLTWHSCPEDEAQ

What was measured:
[1] = molecular target: T1, SUV39H1, GFP- or RFP-tagged, in U2OS cells (F2H) (UniProt O54864); assay: two-hybrid; fluorescent two-hybrid (F2H) in living human U2OS cells: GFP-tagged protein tethered to lac-operator arrays via GBP-LacI, recruitment of the RFP-tagged protein seen by colocalization
T1 sequence: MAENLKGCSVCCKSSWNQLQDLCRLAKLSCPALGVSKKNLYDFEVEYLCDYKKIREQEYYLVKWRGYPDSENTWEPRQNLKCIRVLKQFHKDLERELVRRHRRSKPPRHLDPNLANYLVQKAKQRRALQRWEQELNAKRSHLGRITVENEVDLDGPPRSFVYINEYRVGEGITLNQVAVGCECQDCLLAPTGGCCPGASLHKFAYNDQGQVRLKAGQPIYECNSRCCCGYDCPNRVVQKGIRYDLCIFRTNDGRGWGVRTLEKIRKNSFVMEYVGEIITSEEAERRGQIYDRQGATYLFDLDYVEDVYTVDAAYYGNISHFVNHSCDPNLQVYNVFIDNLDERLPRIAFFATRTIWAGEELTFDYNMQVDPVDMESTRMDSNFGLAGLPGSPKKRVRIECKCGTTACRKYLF

[2] = molecular target: HP1α, GFP- or RFP-tagged, in NIH-3T3 cells (UniProt Q61686); assay: fluorescence cross correlation spectroscopy (FCCS); soluble nucleoplasmic complexes of GFP- and RFP-labelled proteins in living NIH-3T3 cells

Substance: RFP-HP1β in U2OS cells (F2H) (from UniProt P83917 1-185)
- binding [1]: binds

Substance: RFP-HP1β in NIH-3T3 cells (from UniProt P83917 1-185)
- binding [2]: binds

Substance: HP1α, GFP- or RFP-tagged, in NIH-3T3 cells (from UniProt Q61686 1-191)
- binding [2]: binds

Substance: RFP-HP1γ in NIH-3T3 cells (from UniProt P23198 1-183)
- binding [2]: binds
